From publication PMC11448930
Results are given in words; binding and its absence hold for the method and conditions named.

Target: Plasmodium vivax N-myristoyltransferase (Plasmodium vivax Sal-1 (strain Salvador I))
Experiment: SEC; Superdex 75 26/60, 20 mM HEPES pH 7.0, 300 mM NaCl, 5% glycerol, 1 mM TCEP; preparative step after IMAC; both purified

B1: Plasmodium vivax N-myristoyltransferase (enzyme)
chain: DYKFWYTQPVPKINDEFNESVNEPFISDNKVEDVRKDEYKLPPGYSWYVCDVKDEKDRSEIYTLLTDNYVEDDDNIFRFNYSAEFLLWALTSPNYLKTWHIGVKYDASNKLIGFISAIPTDICIHKRTIKMAEVNFLCVHKTLRSKRLAPVLIKEITRRINLENIWQAIYTAGVYLPKPVSDARYYHRSINVKKLIEIGFSSLNSRLTMSRAIKLYRVEDTLNIKNMRLMKKKDVEGVHKLLGSYLEQFNLYAVFTKEEIAHWFLPIENVIYTYVNEENGKIKDMISFYSLPSQILGNDKYSTLNAAYSFYNVTTTATFKQLMQDAILLAKRNNFDVFNALEVMQNKSVFEDLKFGEGDGSLKYYLYNWKCASFAPAHVGIVLL
  binding: no binding
